These are literature values, as cited in patent publication US9771376B2 (GENENTECH, INC., priority 2000, dated 2017).

For the data set the following is noted: administered topically (Lidoderm patch); cited from earlier work.

As for `CCN(CC)CC(=O)Nc1c(C)cccc1C` [lidocaine], the plasma concentrations result is “about 1 μM”.
